In PMC8423574:
Results are given in words; binding and its absence hold for the method and conditions named. Binding seen in cells or lysates may run through a third protein. Binding can be weak; no strength is given.

Target: T1, p21 (rat (endogenous in H9C2)) (UniProt Q64315)
T1 sequence: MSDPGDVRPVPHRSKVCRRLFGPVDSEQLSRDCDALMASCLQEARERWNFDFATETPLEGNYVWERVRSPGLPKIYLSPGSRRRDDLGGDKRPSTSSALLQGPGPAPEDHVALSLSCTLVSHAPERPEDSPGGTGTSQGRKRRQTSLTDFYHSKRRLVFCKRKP
Assay: co-IP; lysate of H9C2 cells after IH stimulation; precipitated with p21 antibody or normal rabbit IgG and protein G Sepharose at 4°C; lysis buffer 50 mM Tris-HCl (pH 7.5), 150 mM NaCl, 0.5% Triton X-100, 1 mM EDTA; Western blot

## makorin ring finger protein 1 (MKRN1) (rat (endogenous in H9C2))
  binding: binds
